Laboratory results from patent US12396963B2, “Cannabidiol-type cannabinoid compound” (JAZZ PHARMACEUTICALS RESEARCH UK LIMITED, priority 2019, dated 2025).

Legend:
mouse model of seizure = assay: Maximal electroshock seizure threshold (MEST) test in the mouse, Example 2; settings: 2.5 mg/kg i.p., 30 min pre-treatment, vehicle CC50 20.0 mA
Method: The efficacy of CBD-C1 was tested in a mouse model of seizure, the maximal electroshock seizure threshold (MEST) test.
The maximal electroshock seizure threshold (MEST) test is widely utilized preclinically to evaluate pro- and anti-convulsant properties of molecules (Loscher et al., 1991).
In the MEST test the ability of a drug to alter the seizure threshold current required to induce hind limb tonic extensor convulsions is measured according to an “up and down” method of shock titration (Kimball et al., 1957). An increase in seizure threshold is indicative of anti-convulsant effect.
Naïve mice were acclimatised to the procedure room in their home cages, with food and water available ad libitum.
Animals were dosed i.p. according to dose group.
The vehicle (10 ml/kg i.p. 60 min pre-treatment time) was 1:1:18 vehicle 5% ethanol, 5% kolliphor EL, 90% saline. […]
Mice were individually assessed for the production of a tonic hind limb extensor seizure using a Hugo Sachs Electronik stimulator, which delivered an adjustable constant current (1-300 mA) of 0.1 s duration via corneal electrodes. […]
Induction of seizure is measured as an all-or-nothing effect scored as either present (+) or absent (0) for each animal. […]
Data was analysed by comparing treated groups with the appropriate vehicle control using Fisher's Exact Probability tests.

[1] = system: mouse model of generalised seizure; assay: Maximal electroshock seizure threshold (MEST) test in the mouse, Example 3; settings: 2.5 mg/kg i.p., 30 min pre-treatment, vehicle CC50 22.3 mA
Method: The efficacy of CBD-C1 was tested in a mouse model of generalised seizure, the maximal electroshock seizure threshold (M EST) test, as in Example 2.
Naïve mice were acclimatised to the procedure room in their home cages for up to 7 days, with food and water available ad libitum.
All animals were weighed at the beginning of the study and randomly assigned to treatment groups based on a mean distribution of body weight across groups.
The first animal within a treatment group was given a shock at the expected or estimated CC50 current. For subsequent animals, the current was lowered or raised depending on the convulsions outcome from the preceding animal.
Data generated from each treatment group were used to calculate the CC50±SEM values for the treatment group.
Vehicle: (5% ethanol, 5% solutol, 90% Saline) was prepared as follows: 2 mL of ethanol, 2 mL of solutol were warmed to 60° C., in 36 mL of saline (1:1:18).
The test compound, CBD-C1 was prepared according to the method described in Example 1. […]
CBD-C1 effects were also calculated as percentage change in CC50 from the vehicle control group.
Significant difference between drug-treated animals and controls were assessed according to Litchfield and Wilcoxon (1949).

## CN1C(=O)CN=C(c2ccccc2)c2cc(Cl)ccc21 [Diazepam, diazepam, reference compound]
Mouse model of seizure
  CC50 +/- SEM: 33.5 +/− 4.7 mA
Mouse model of seizure; listed as diazepam
  CC50 +/- SEM: 33.5 mA
[1]
  CC50 ± SEM: 77.5 ± 0.4 mA
[1]; listed as diazepam
  CC50 ± SEM: 77.5 mA
